Test results reported in patent publication US6835867B1, “Allelic series of genomic modifications in cells” (priority 1998, dated 2004).
At least one structure is not confirmed: it was looked up by name or label, or the drawing left a doubt.

Key:
[1] = test system: hypoxanthine guanine phosphoribosyltransferase (Hprt) gene in mouse embryonic stem (ES) cells; test: ENU-induced Hprt-inactivating mutations, 6-TG selection, Protocol 2 (24-well plates); type: cell-based
Experimental: In the second protocol, actively growing ES cells were trypsinized and plated at two densities (1×10^5 and 0.5×10^5 cells/well) in 24-well tissue culture plates instead of T25 flasks. After a one-day preincubation period, cells were treated for 5 hours with 0.3 mg/ml or 0.4 mg/ml ENU (as described above) and subsequently treated as described in Table 2. [table]

[2] = test system: hypoxanthine guanine phosphoribosyltransferase (Hprt) gene in mouse embryonic stem (ES) cells; test: ENU-induced Hprt-inactivating mutations, 6-TG selection, Protocol 1; type: cell-based; conditions: 0.3 mg/ml ENU; Hprt locus

Q: Which results are given for `CCN(N=O)C(N)=O` [ENU, N-ethyl-N-nitrosurea]?
A: Mutation frequency maximum ([1]; 0.3 mg/ml ENU, Plate 1): 1/2,000; Mutation frequency minimum ([1]; 0.3 mg/ml ENU, Plate 1): 1/5,000; Mutation frequency maximum ([1]; 0.3 mg/ml ENU, Plate 2): 1/1,500; Mutation frequency minimum ([1]; 0.3 mg/ml ENU, Plate 2): 1/3,000; Mutation frequency minimum ([1]; 0.4 mg/ml ENU, Plate 4): 1/9,000; Mutation Frequency Maximum (+PMEF plates) [2]: 1/2,000; Mutation Frequency Minimum (+PMEF plates) [2]: 1/8,000; Mutation Frequency Minimum (−PMEF plates) [2]: 1/8,000
